Screening data, single-dose tests

Sequences of proteins named here, by UniProt entry; tags and fusion partners are left off. Residues count along the entry.
UniProt I6X8D2, whole entry: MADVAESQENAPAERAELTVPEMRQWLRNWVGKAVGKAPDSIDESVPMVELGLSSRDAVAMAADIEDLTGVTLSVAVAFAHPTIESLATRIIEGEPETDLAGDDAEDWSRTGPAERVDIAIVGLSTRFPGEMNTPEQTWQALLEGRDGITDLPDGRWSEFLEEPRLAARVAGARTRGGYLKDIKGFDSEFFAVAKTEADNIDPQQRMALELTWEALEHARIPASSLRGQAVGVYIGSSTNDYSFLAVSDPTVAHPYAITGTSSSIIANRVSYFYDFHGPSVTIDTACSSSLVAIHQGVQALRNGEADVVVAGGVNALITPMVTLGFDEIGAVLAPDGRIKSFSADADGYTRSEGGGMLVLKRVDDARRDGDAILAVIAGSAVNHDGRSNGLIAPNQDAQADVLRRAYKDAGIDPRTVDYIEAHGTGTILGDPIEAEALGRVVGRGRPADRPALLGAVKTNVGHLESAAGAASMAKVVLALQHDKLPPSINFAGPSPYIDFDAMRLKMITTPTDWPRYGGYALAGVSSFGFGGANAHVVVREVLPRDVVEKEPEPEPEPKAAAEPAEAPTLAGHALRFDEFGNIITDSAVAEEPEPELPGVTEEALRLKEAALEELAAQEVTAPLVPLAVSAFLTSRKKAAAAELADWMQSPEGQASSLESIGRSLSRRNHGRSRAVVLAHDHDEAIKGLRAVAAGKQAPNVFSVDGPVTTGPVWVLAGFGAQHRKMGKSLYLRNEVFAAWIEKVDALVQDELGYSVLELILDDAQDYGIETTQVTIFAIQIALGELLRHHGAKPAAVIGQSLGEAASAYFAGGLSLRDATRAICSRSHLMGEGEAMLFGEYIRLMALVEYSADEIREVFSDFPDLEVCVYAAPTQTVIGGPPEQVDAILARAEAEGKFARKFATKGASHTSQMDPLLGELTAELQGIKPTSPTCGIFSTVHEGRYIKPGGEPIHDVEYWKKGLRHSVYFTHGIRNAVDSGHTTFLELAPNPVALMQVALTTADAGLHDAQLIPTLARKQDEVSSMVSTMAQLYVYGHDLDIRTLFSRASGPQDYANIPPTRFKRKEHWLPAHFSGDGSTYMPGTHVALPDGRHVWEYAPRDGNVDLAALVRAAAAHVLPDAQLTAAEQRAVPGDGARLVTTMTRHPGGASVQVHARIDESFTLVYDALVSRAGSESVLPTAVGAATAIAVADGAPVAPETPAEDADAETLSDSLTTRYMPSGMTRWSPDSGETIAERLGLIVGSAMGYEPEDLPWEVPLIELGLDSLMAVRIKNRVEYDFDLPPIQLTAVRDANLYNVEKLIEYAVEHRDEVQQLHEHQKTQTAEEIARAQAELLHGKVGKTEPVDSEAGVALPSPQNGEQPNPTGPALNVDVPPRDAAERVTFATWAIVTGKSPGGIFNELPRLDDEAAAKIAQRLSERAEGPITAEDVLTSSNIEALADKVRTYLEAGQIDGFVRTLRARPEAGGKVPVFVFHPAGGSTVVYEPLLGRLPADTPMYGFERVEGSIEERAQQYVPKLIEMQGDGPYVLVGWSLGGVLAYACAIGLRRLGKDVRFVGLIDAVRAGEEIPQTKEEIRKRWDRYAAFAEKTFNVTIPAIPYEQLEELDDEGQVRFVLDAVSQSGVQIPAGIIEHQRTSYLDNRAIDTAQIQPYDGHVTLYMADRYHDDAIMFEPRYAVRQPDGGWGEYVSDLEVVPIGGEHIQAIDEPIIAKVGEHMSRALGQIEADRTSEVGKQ
UniProt Q4DA54, 1-478: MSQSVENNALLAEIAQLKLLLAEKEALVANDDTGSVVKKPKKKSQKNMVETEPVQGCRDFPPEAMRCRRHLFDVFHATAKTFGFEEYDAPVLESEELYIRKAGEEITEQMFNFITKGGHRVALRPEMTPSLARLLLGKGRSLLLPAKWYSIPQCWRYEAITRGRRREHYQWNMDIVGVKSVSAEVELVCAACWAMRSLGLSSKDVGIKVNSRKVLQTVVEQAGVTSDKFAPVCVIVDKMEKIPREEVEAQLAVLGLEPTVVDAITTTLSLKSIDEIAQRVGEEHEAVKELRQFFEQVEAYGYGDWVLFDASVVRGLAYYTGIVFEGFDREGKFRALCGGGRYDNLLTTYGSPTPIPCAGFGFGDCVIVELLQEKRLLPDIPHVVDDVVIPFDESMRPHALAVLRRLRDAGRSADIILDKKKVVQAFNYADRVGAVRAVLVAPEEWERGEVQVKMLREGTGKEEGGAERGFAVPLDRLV
UniProt P9WPC5, whole entry: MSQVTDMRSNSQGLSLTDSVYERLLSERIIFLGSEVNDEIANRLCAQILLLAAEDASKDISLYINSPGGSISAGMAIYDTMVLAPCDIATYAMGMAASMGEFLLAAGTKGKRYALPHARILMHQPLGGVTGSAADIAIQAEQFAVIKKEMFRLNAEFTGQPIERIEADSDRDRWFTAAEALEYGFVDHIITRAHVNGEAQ
UniProt P9WPC3, whole entry partner: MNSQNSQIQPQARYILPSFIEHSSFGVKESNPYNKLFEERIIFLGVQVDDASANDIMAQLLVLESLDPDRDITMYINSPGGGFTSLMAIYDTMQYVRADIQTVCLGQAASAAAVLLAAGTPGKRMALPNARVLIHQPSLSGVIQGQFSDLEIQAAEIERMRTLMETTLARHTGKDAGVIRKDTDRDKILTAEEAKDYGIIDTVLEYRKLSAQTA
UniProt A4I591, 1-473: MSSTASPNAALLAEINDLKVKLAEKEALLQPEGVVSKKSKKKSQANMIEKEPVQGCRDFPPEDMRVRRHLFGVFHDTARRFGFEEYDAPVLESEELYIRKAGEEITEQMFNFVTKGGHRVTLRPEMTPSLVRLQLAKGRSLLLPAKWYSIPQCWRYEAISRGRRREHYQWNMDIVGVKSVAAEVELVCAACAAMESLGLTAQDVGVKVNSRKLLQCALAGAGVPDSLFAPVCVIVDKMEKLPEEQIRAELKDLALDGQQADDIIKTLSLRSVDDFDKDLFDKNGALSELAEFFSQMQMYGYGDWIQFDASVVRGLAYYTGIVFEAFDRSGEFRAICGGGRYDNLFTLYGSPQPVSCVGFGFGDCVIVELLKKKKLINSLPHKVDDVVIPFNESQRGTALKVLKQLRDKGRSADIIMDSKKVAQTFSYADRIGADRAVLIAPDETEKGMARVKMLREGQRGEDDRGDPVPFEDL

Pks13 thioesterase: 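Polyketide synthase Pks13, Mycobacterium tuberculosis (UniProt I6X8D2). Enzyme assay of the thioesterase domain of polyketide synthase 13; the read-out is not stated. Compounds at 30 µM. Higher reads as stronger inhibition (inferred from which compounds were picked for retests). Size under these conditions: about 67,000 compounds, about 300 of them at 50% or above in at least one test.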
TcHisRS: 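Enzyme assay of histidyl-tRNA synthetase; the read-out is not stated. Target: Histidine-tRNA ligase, Trypanosoma cruzi CL Brener (UniProt Q4DA54). Tested at 30 µM. Direction is inferred from retests: higher values go with stronger inhibition. Size under these conditions: about 69,000 compounds, about 31 of them at 50% or above in at least one test.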
ClpP1P2: 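ClpP1P2, Mycobacterium tuberculosis (UniProt P9WPC5 and UniProt P9WPC3). Protease assay of ClpP1P2, read by the AMC dye that it sets free. Tested at 50 µM. Higher reads as stronger inhibition, judged from the few compounds that gave an IC50. Most other retested compounds had strongly negative values. About 69,000 compounds were tested under these conditions; 0.015% (about 10) showed 50% or more at least once.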
Leishmania in macrophages: 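Cell assay of Leishmania donovani living inside macrophages; the read-out is not stated. Tested at 30 µM. The record gives no direction; compounds that gave an IC50 in retests scored well above the rest, so higher reads as stronger inhibition. Size under these conditions: about 69,000 compounds, about 1,000 of them at 50% or above in at least one test.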
LiHisRS: 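Histidine-tRNA ligase, Leishmania infantum (UniProt A4I591). Enzyme assay of histidyl-tRNA synthetase; the read-out is not stated. Tested at 30 µM. The record gives no direction; compounds that gave an IC50 in retests scored well above the rest, so higher reads as stronger inhibition. The assay is labelled LdHisRS but filed under L. infantum. Of about 69,000 compounds tested this way, about 410 (0.6%) reached 50% or more in at least one test.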

Values are the deposited “Percent Effect”, in %.
The controls that fix the scale are not given in the record; negative values are as filed.
The compounds are a random part of those screened.
Two or more numbers in one place are separate tests of the same structure; such repeats can differ widely.
A dash means the value is not listed here; it may have been measured.

SMILES,Pks13 thioesterase,TcHisRS,ClpP1P2,Leishmania in macrophages,LiHisRS
Cc1ccc(C)c(CS(=O)(=O)Cc2ccn(C)c(=O)c2)c1,2.296%,-1.724%,2.271%,32.52%,15.18%
COCCN1CCN(Cc2coc(-c3ccccc3Cl)n2)CC1,-3.976%,-2.469%,-10.52%,28.18%,1.961%
[H][C@@]12CCN(S(=O)(=O)C3CC3)C[C@@]1([H])O[C@@H](c1ccnc(C)n1)C2,-,-,-,5.116%,-
Cc1cc(C(=O)N(C)CC(F)(F)C(F)(F)F)ccc1-n1cncn1,-4.385%,4.202%,2.027%,9.128%,10.53%
O=C(Nc1ccc2c(c1)OCO2)N1CCN(CCn2ccnc2)CC1,-42.89%,2.222%,3.275%,9.051%,23.08%
Cc1ccc(C(C)NCc2c(C(C)C)nn(C)c2N2CCOCC2)o1 (configuration not stated),-1.33%,5.202%,-27.5%,14.62%,9.649%
Cc1ccc(NCc2cn3c(n2)CN(Cc2ccoc2)CC3)nn1.O=C(O)C(F)(F)F.O=C(O)C(F)(F)F,-,-,-,22.2%,-
COCC(=O)N1CCC2(CC1)CN(c1ccccn1)CCO2,-10.1%,9.244%,5.449%,-,17.43%
CC(NC1CCN(C(=O)C2CCCCC2)CC1)c1nccs1 (configuration not stated),-23.66%,4.04%,9.323%,-1.291%,1.587%
CNC(=O)NC(=O)CN1CCCN(CC(F)(F)F)CC1,-28.68%,10.71%,-3.9%,14.1%,22.22%
O=C(CC1CCCCC1)N1CCC(O)(C(F)(F)F)C1 (configuration not stated),-14.05%,7.006%,0.7153%,5.218%,15.49%
CCNC(=O)N1CCC(NC(=O)NCCc2ccc(C)cc2C)C1 (configuration not stated),-17.23%,5.202%,-3.054%,7.349%,12.77%
O=C(Nc1cccnc1)[C@H]1CN(Cc2nccs2)C[C@H]2OCC[C@@H]12,-13.91%,7.104%,-0.4737%,-,2.19%
COc1ccccc1OCCNc1snc(Cl)c1C#N,-5.722%,-12.07%,13.14%,22.17%,14.91%
CCN(Cc1c(C)nn(CC)c1C)S(=O)(=O)c1cnn(C)c1,-14.33%,0.4464%,-24.08%,17.47%,16.05%
Cc1nccn1CCC1CCN(C(C)C)CC1,6.365%,7.605%,4.419%,12.64%,8.966%
O=C(O)C(F)(F)F.O=C(O)C(F)(F)F.O=C(O)C(F)(F)F.[H][C@@]12CN(Cc3cccnc3OC)C[C@]1([H])OCCN2CCN(C)C,-,-,-,21.16% and 5.78%,-
O=c1c2c(ncn1CCO)nc1n2CCC1,2.268%,3.704%,-3.625%,-14.24%,14.71%
CC(C)NC(=O)N1CCN(C(=O)C2CCOCC2)CC2(CNC(=O)C2)C1 (configuration not stated),-1.367%,2.439%,0.3604%,13.06%,17.95%
CCNC(=O)N1C[C@@H]2OCC(=O)N(C(C)C)[C@@H]2C1,5.026%,-1.493%,-3.708%,-,-8.108%
Cc1cnn(CC(C)NCc2csc(-c3ccco3)n2)c1 (configuration not stated),11.8%,7.143%,-4.515%,10.49%,40.54%
COc1cccc(CN2CCCC2Cn2nc(C)nc2C)c1 (configuration not stated),-23.79%,8.832%,8.318%,-1.248%,8.547%
CCOc1ccnc(N2CCCN(c3nc(CC)ns3)CC2)n1,-0.2796%,2.041%,1.236%,6.157%,13.22%
CC(C)N1CCC2(CCN(C(=O)c3cccnc3)CC2)C1,-10.27%,4.972%,-2.393%,-,7.519%
O=C(c1cc(=O)[nH][nH]1)N1CCCC2(CCC(=O)N(C3CCCC3)C2)C1 (configuration not stated),-28.17%,9.184%,5.864%,12.16%,17.14%
COc1ccc(CN(C)C(=O)CN2CC(n3cc(C)cn3)C2)cc1F,-33.99%,4.972%,-3.011%,3.916%,17.62%
CNC(=O)[C@@H](c1ccccc1OC)N1CCC[C@H]1C(=O)N1CCC1.Cl,-,-,-,13.81%,-
Cc1cc(-c2cc(N)c(=O)n(CC(=O)NC3CCCCC3)n2)c(C)o1,18.92%,0%,-6.929%,29.83%,4.225%
CN(C)C(=O)C1CCN(C2CCN(CC3CCC3)CC2)CC1.O=C(O)C(F)(F)F.O=C(O)C(F)(F)F,-,-,-,25.06%,-
O=C(O)C(F)(F)F.O=C(O)C(F)(F)F.O=C(O)C(F)(F)F.[H][C@@]12C[C@@H](OCCN3CCCC3)CN1CCN(C(=O)Cc1ccccn1)C2,-,-,-,5.607%,-
COCCN(CCOC)c1ncc(C#N)cc1Cl,-15.17%,8.333%,-4.506%,11.31%,16.67%
Cc1ccc(-c2nc(CNCCn3cccn3)cs2)o1,9.142%,4.943%,-9.127%,19.5%,31.2%
CNC(=O)[C@H]1CC[C@@H]2[C@@H](CCN2c2ncccn2)O1,-0.8107%,-1.149%,9.861%,-,14%
CN(C)CC1(O)CCN(S(=O)(=O)c2ccc(F)cc2)C1 (configuration not stated),-23.61%,-0.5405%,3.815%,1.954%,30.56%
CC(C)(C)CC(=O)NCC(=O)Nc1ccn(Cc2ccccc2)n1,21.58%,-6.211%,-7.274%,0.9884%,-15%
CCn1cnnc1C1CCN(C(=O)c2cccc(C)c2C)CC1,-22.12%,4.598%,22.45%,-16.82%,10.43%
CC(C)Cn1cncc1CNC1CCCNC1 (configuration not stated),-4.064%,9.036%,-9.684%,13.77%,15.38%
Cc1nc(Nc2nncs2)cc(C2CNC2)n1,-35.13%,3.03%,-19.8%,-,7.246%
[H][C@@]12CCN(c3ccc(C)nn3)C[C@]1(C(=O)N1CCCC1)CCO2,-,-,-,7.273%,-
Cc1cc(C)cc(OCn2ccc(C(=O)O)n2)c1,-5.856%,3.478%,-0.5411%,36.81%,3.448%
CN(C)C(=O)CN1CCCC(c2cncc(-c3cccc(Cl)c3)n2)C1 (configuration not stated),-4.89%,7.491%,-7.093%,10.75%,10%
COc1ccccc1OCCNC1CCCN(Cc2noc(C)n2)C1 (configuration not stated),-15.04%,1.714%,-3.749%,-16.47%,-18.64%
CS(=O)(=O)CCCN1CCN(C(C#N)c2ccccc2)CC1 (configuration not stated),-9.23%,1.98%,-3.149%,16.78%,19.57%
CCc1nc(CN2CCCC2C(=O)NC2CC2)cs1 (configuration not stated),-42.63%,3.879%,-16.58%,20.35%,11.39%
COc1ccc(CCn2ccnc2-c2cc3n(n2)CCCNC3)cc1,-5.46%,6.548%,-6.081%,-23.27%,13.98%
O=C(O)C(F)(F)F.[H][C@@]12CCCO[C@]1([H])[C@H](NS(C)(=O)=O)CN(Cc1c(C)noc1C)C2,-,-,-,8.794%,-
Cn1cc(CNCCNc2ncc(Cl)cc2Cl)cn1,-27.78%,1.657%,11.85%,-14.13%,3.109%
CCOCC1CCN(C(=O)C(c2ccc(F)cc2)N(C)C)CC1 (configuration not stated),-8.276%,5.579%,10.96%,18.35%,9.836%
CN(CCc1ccccn1)C(=O)c1cn2c(n1)CNCC2,-6.496%,9.827%,5.626%,-23.7%,6.383%
CCCn1nnnc1CSc1nccn1Cc1ccccn1,4.068%,5.063%,-6.682%,-9.082%,-10.42%
CC(C)OCCCNC(=O)C1CCC(=O)N(C2CCCC2)C1 (configuration not stated),2.526%,0%,-3.485%,-7.602%,21.21%
Cc1nc(CN2CCCC(NCc3csc(C(C)(C)C)n3)C2)no1 (configuration not stated),-6.907%,3.448%,-10.69%,7.871%,15.65%
CC1(C)CN=C(N2CCN(CCCN3CCOCC3)CC2)S1,-3.385%,7%,0.7281%,-4.158%,16.33%
[H][C@@]12CCC(=O)N(CC(C)C)[C@]1([H])CCN(Cc1ncc[nH]1)C2,-,-,-,3.769%,-
Cc1noc2ncnc(N(C)Cc3ccco3)c12,-8.455%,8.537%,-13.42%,11.67%,2.632%

The last 4 entries again:

For Cc1nc(CN2CCCC(NCc3csc(C(C)(C)C)n3)C2)no1 (configuration not stated) the result was Pks13 thioesterase: -6.907%; TcHisRS: 3.448%; ClpP1P2: -10.69%; Leishmania in macrophages: 7.871%; LiHisRS: 15.65%.
For CC1(C)CN=C(N2CCN(CCCN3CCOCC3)CC2)S1 the result was Pks13 thioesterase: -3.385%; TcHisRS: 7%; ClpP1P2: 0.7281%; Leishmania in macrophages: -4.158%; LiHisRS: 16.33%.
For [H][C@@]12CCC(=O)N(CC(C)C)[C@]1([H])CCN(Cc1ncc[nH]1)C2 the result was Leishmania in macrophages: 3.769%.
For Cc1noc2ncnc(N(C)Cc3ccco3)c12 the result was Pks13 thioesterase: -8.455%; TcHisRS: 8.537%; ClpP1P2: -13.42%; Leishmania in macrophages: 11.67%; LiHisRS: 2.632%.

The values are deposited in ChEMBL (CHEMBL3988442, “University of Dundee, Small-Polar-MMV Screening Library” (2021)).